Results are given in words; binding and its absence hold for the method and conditions named. Some results given as binding are weak or reduced against the parent protein; the word gives no strength.
Tests used:
[1] = target: human CFHL3-His (ATX-P-58) (human) (UniProt Q02985); experiment: Carterra LSA biosensor, mAb printed on chip, human CFHL3-His at 550 nM
[2] = target: Human CFHL1-Y402H-His (ATX-P-421) (human); experiment: Carterra LSA biosensor, mAb printed on chip, human CFHL1-Y402H-His at 380 nM

By UniProt entry, the sequences of proteins in these tests, tags left out. Residues count along the entry.
UniProt Q02985, residues 19-330: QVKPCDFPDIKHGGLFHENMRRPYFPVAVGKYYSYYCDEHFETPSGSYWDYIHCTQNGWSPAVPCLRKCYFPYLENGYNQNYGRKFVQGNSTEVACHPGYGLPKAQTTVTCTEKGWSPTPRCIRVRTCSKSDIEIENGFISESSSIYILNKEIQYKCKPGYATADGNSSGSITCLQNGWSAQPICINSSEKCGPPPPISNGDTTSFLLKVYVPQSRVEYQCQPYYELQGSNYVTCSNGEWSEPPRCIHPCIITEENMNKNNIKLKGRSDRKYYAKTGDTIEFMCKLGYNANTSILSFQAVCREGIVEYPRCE

binding [1]: binds | binding [2]: binds
B1: ATX-P-581 (antibody, human IgG1, kappa, N297A, V domains shown)
VH: QVQLQQSGPGLVKPSQTLSLTCAISGDSVSSNNAAWNWIRQSPSRGLEWLGRTYYRSKWYNAYAVSVKSRIIINPDTSRNQFSLQLNSVTPEDTAVYYCAREGGYIYGLDQWGQGTLVTVSS
VL: DIQMTQSPSSVSASVGDRVTITCRASQGVNNWLAWYQQKPGKAPKLLIHAASSLLSGVPSRFSGSGSGTDFTLTITSLQPEDFATYYCQQANSFPITFGQGTRLEIKR
